Source: the supplement of paper PMC4604168 (melanoma cell lines)
The other results are listed elsewhere or left out. Repeats are few or missing, and single values can be far off.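 The apoptosis fraction was the count of cleaved-PARP antibody-stained nuclei relative to all DNA-stained nuclei, imaged in 1,536-well plates. Screening doses were set so most cells survived, and baseline and induced cleaved-PARP levels vary greatly across cell lines.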

What follows are compounds tested on A375 (assay: cleaved PARP positive nuclei fraction relative to DMSO control; melanoma cells; higher = more apoptosis). Details: library dose: low library concentration; 72 h.

Compound	cleaved PARP positive nuclei fraction [%]
CN(NC(=O)CC(=O)NN(C)C(=S)c1ccccc1)C(=S)c1ccccc1 + CCCCCCCCCCCC1=C(O)C(=O)C=C(O)C1=O [Embelin] (first compound 0.006 µM, partner dose 1.2 µM)	751
COc1ccc2c(c1)CCC1C2CCC2(C)C(NCCCCCCN3C(=O)C=CC3=O)CCC12 (stereo unspecified) + O=c1cc(-c2cccc3c2Sc2ccccc2S3)oc(N2CCOCC2)c1 [KU55933] (first compound 0.4 µM, partner dose 1 µM)	126
COc1ccc2c(c1)CCC1C2CCC2(C)C(NCCCCCCN3C(=O)C=CC3=O)CCC12 (stereo unspecified) + Oc1nc(-c2ccc(C(F)(F)F)cc2)nc2c1CSCC2 [XAV939] (first compound 0.4 µM, partner dose 2 µM)	512
O=C(O)c1ccc(-c2c[nH]c3ncc(-c4ccccc4)cc23)cc1C1CCCC1 + COc1ccc2c(c1)CCC1C2CCC2(C)C(NCCCCCCN3C(=O)C=CC3=O)CCC12 [U73122] (first compound 0.16 µM, partner dose 0.4 µM)	74
CCc1ccc(CCOc2ccc(CC3SC(=O)NC3=O)cc2)nc1 (stereo unspecified) [pioglitazone] + Oc1nc(-c2ccc(C(F)(F)F)cc2)nc2c1CSCC2 [XAV939] (first compound 2 µM, partner dose 2 µM)	77.6
COc1cc2c(Oc3ccc4[nH]c(C)cc4c3F)ncnc2cc1OCCCN1CCCC1 [cediranib] + COc1cc2ncnc(Nc3ccc(Oc4ccccc4)cc3)c2cc1OC [SrcI1] (first compound 0.4 µM, partner dose 2 µM)	47.8
